# Measured values published in PubChem BioAssay AID493014 (National Center for Advancing Translational Sciences (NCATS), 2011).
# Out of some 340,000 compounds screened, about 170 (0.05%) were called active. The shares of active, inactive and inconclusive entries below differ from those in the screen. Calls come from the whole dose curve; as a rule, active = well fitted inhibition curve with a large enough effect in the signal ratio, with a control signal flat (not every such curve was filed as active); inconclusive = small, poorly fitted or top-dose-only effect, or effect the other way, or a change in a side signal; inactive = flat fitted curve, though single readings scatter; the % refers to the signal ratio. Potencies of inconclusive entries are doubtful fits and often do not repeat.
# Test: qHTS Assay to Find Inhibitors of Chronic Active B-Cell Receptor Signaling;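 for activity change, negative = inhibition: plate controls were basal doxycycline-induced cells for no effect and cells given 10 µM MG132 for full effect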
# Conditions: ABC-DLBCL IkBa-CBG/CBR reporter, luminescence ratio (green luciferase fused to IkBa over red control in TMD8 lymphoma cells), 4 h; activity change, negative = inhibition: at 46.1 µM (top of the series) unless noted
# In short: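 Compounds up to 46 uM were incubated four hours with TMD8 cells whose green CBG68 luciferase is fused to IkappaBalpha; red CBR luminescence normalised the signal, and concentration-effect curves were fitted to fusion, red and ratio data.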
# Potency is the fitted concentration of half-maximal effect.
SMILES,"activity change, negative = inhibition",Potency
C=CCSC1=N/C(=C\c2sccc2C)C(=O)S1,inconclusive: -0.246%,
Cc1ccc(Cn2cccc(-c3nc4ccccc4s3)c2=O)cc1,inconclusive: 8.5%,
Clc1ccccc1-c1nnc2sc(-c3ccc4c(c3)OCO4)nn12,inconclusive: -18.5%,
C/C(=C\c1cccs1)C(=O)c1c(C)cc(C)[nH]c1=O,inconclusive: 2.56%,
COc1ccc(C(=O)COC(=O)c2cccs2)cc1,,"inconclusive: 5.8 µM [falling, single point]"
OCCNc1nc(Nc2ccccc2)nc2ccccc12,inconclusive: 3.34%,
CN(CC(=O)N1CCCC1)S(=O)(=O)c1ccc(Cl)cc1,inconclusive: -11.6%,
FC(F)(F)Oc1ccc(-c2cn3cccnc3n2)cc1,,"inconclusive: 35.5 µM [falling, single point]"
N#CCc1c(C#N)c(N)nc(Nc2ccccc2)c1C#N,inconclusive: -4.02%,
COC(=O)c1ccc(S(=O)(=O)N2CCN(C(c3ccccc3)c3ccccc3)CC2)n1C,inconclusive: 5%,
Cc1ccc(S(=O)(=O)Nc2ccc3c(c2)nc(CCN2CCN(c4ccccn4)CC2)n3C)cc1,inactive: 2.82%,
CCCCc1ccc(NC(=O)c2cnccn2)cc1,,"inconclusive: 5.62 µM [falling, single point]"
COc1ccc(C(=O)COC(=O)c2cc([N+](=O)[O-])ccc2N2CCOCC2)c(OC)c1,inconclusive: -21.9%,
Cc1nn2cc(-c3ccc(Cl)cc3)cnc2c1Br,inconclusive: 17.9%,
Cc1ccc(-n2c(=O)c3cccnc3n2CC(=O)Nc2cc(C)cc(C)c2)cc1,inactive: 9.11%,
CCOc1ccc(CCNC(=O)CCS(=O)(=O)c2ccc(Br)cc2)cc1OCC,inconclusive: -1.09%,
COc1cc(OC)cc(C(=O)Nc2nc(-c3ccccc3)c(-c3ccccc3)o2)c1,inactive: 1.36%,
Cn1c(Sc2nc3ccccc3n2C)nc2ccccc21,,"inconclusive: 10 µM [falling, partial curve, poor fit]"
O=C(NCc1ccccc1CN1CCCC1)c1cc2ccccc2o1,inconclusive: -5.21%,
COC(=O)CCC(=O)NC(=S)Nc1sc(C)c(C)c1C(N)=O,,"inconclusive: 3.26 µM [falling, partial curve, poor fit]"
COc1ccc(CCNC(=O)CSc2ccsc2[N+](=O)[O-])cc1OC,inactive: -0.293%,

SMILES,"activity change, negative = inhibition",Potency
CCOC(=O)Cc1csc(NC(=O)CSc2nnnn2-c2ccc(C)c(C)c2)n1,inactive: -4.99%,
Cc1cccc(NC(=O)Cn2c(=O)n(C)c3ccccc32)c1,inconclusive: 11.9%,
CC(C)Sc1ccccc1C(=O)Nc1ccc2c(c1)n(C)c(=O)n2C,inconclusive: 1.2%,
O=[N+]([O-])c1c(NCCO)cc(N2CCCCCC2)c2nonc12,inactive: -2.46%,
Cc1ccc(-n2c(SCC(=O)NCc3ccco3)nc3c(sc4ccccc43)c2=O)cc1,inconclusive: -1.37%,
O=C(CCn1nnnc1CN1CCOCC1)N1CCC(c2ccccc2F)C1 (stereo not drawn),inactive: -3.97%,
Nc1ccc(C(=O)N2CCN(S(=O)(=O)c3ccc(Br)cc3)CC2)cc1[N+](=O)[O-],,"inconclusive: 32.6 µM [falling, single point]"
Cc1ccc(N=Cc2c(O)c3ccccc3n(C)c2=O)cc1,inconclusive: -1.71%,
CC1(C)C2CCC1(C)C(OCC[N+](C)(C)CC(=O)OC1CCCCC1)C2 (stereo not drawn),inconclusive: -32.1%,
COC(=O)CNC(=O)C1CCC(CNS(=O)(=O)c2cccc3nsnc23)CC1 (stereo not drawn),inactive: 0.851%,
CCn1c(SCC(=O)Nc2ccccc2C(=O)OC)nnc1-c1ccc(N)cc1,inconclusive: -24.4%,
Cc1cccc(C(=O)N[C@@H](C)C(=O)N2CCN(c3ncccn3)CC2)c1,inconclusive: -0.224%,
CO/N=C(/CS(=O)c1ccc(Br)cc1)c1ccc(OC)cc1 (stereo not drawn),inconclusive: -0.934%,
Cc1[nH]c2ccccc2c1-c1csc(NC(=O)CSCCO)n1,inconclusive: 4.69%,
CCOC(=O)c1cnc(Nc2nc3ccccc3o2)nc1CN1CCN(C)CC1,,"inconclusive: 35.5 µM [rising, single point]"
O=C(NCc1cccnc1)c1cc(-c2ccco2)on1,inconclusive: -4.17%,
CCNS(=O)(=O)c1ccc(NC(=O)CC(C)c2ccccc2)cc1 (stereo not drawn),inactive: 0.0953%,
CC(OC(=O)c1ccco1)C(=O)Nc1ncc(Cl)cc1Cl (stereo not drawn),inconclusive: 3.75%,
Cc1cc(Cl)ccc1C(=O)C1CCCN(C(=O)c2cc(C(C)C)no2)C1 (stereo not drawn),,"inconclusive: 0.224 µM [falling, full curve, poor fit]"
COc1cc(C)ccc1OCCCOc1ccccc1Cl,inactive: 13.5%,
O=c1c2ccccc2[nH]c(=S)n1CCCN1CCOCC1,inconclusive: -0.336%,

# Rewritten tab-delimited: part of the list above
SMILES	activity change, negative = inhibition	Potency
Nc1ccc(C(=O)N2CCN(S(=O)(=O)c3ccc(Br)cc3)CC2)cc1[N+](=O)[O-]		inconclusive: 32.6 µM [falling, single point]
COc1cc(C)ccc1OCCCOc1ccccc1Cl	inactive: 13.5%	

# Next compounds follow.

SMILES,"activity change, negative = inhibition",Potency
O=C(CCSCc1ccccc1)Nc1ccc2c(c1)OCCO2,inconclusive: 11.1%,
Cc1ccc(S(=O)(=O)N2CCN(c3nc(C)nc4sc(C)c(C)c34)CC2)cc1,inactive: -2.25%,
COc1cccc(NC(=O)C2CCCN(S(=O)(=O)c3cccc4cccnc34)C2)c1 (stereo not drawn),inactive: -9.37%,
Cn1c(NCc2ccco2)nc2ccccc21,inactive: 6.52%,
COc1ccc(S(=O)(=O)N2CCOCC2)cc1NC(=O)CSc1n[nH]c(=O)n1C1CC1,inconclusive: -19.4%,
C#CCOc1ccc(C2C3=C(COC3=O)Nc3cc4c(cc32)OCO4)cc1OC (stereo not drawn),,"inconclusive: 0.316 µM [falling, full curve]"
O=C(CNC(=O)c1ccc(Cl)cc1Cl)OCc1ccccc1,inactive: 4.76%,
CC(C)(C)[C@H]1C=C(C(=O)NCc2nc3ccccc3[nH]2)O[C@@H](OCCCCO)C1,inconclusive: -18.7%,
O=C(COc1ccc(S(=O)(=O)Nc2ccc(Cl)cc2)cc1)N1CCOCC1,inactive: -7.36%,
O=C(CSc1nc2[nH]ncc2c(=O)[nH]1)c1ccccc1,,"inconclusive: 35.5 µM [rising, single point]"
C=CC[C@@H](CC(=O)N(CCO)Cc1ccccc1)C(=O)N[C@H](C)COC(=O)[C@@H](CC=C)Cc1ccc(F)cc1,,"inconclusive: 29.1 µM [falling, partial curve, poor fit]"
Cc1ccccc1C1=N/C(=C/c2cccs2)C(=O)O1,inconclusive: 0.458%,
CCOc1ccc(S(=O)(=O)N(C)c2ccc(OCC(=O)Nc3nccs3)cc2)cc1,inconclusive: 11.2%,
Cc1ccc(-c2nn(-c3ccccc3)cc2CO)cc1,inconclusive: -1.63%,
CCN(CCO)Cc1csc2ccc(C(C)(C)C)cc12,inactive: -4.74%,
COc1ccc(C(=O)O)cc1S(=O)(=O)N1CCN(c2ccccn2)CC1,inactive: 1.4%,
CCOC(=O)c1nn(-c2ccc(Br)cc2)cc1C(=O)c1cccc2ccccc12,inactive: -1.8%,
CN1C[C@@H]2C(c3ccccc3)C3(c4ccccc4)CC2(C3)[C@H]1c1ccccc1 (stereo partly drawn),inactive: 3.64%,
COc1ccc(C2c3ccc(O)cc3Oc3ncn(CCCO)c(=N)c32)cc1OC (stereo not drawn),,"inconclusive: 15.8 µM [falling, single point]"
COc1cc(F)cc(-c2ccc3c(c2)c(-c2cccs2)c(-c2cc(OC)cc(OC)c2)n3C)c1,,"inconclusive: 18.4 µM [falling, partial curve]"
CCCN1C(=O)/C(=C/c2cc(C)n(C)c2C)SC1=Nc1ccc(OC)cc1,inactive: 5.16%,

# Pulled by structure from the entries so far (three):
SMILES,"activity change, negative = inhibition",Potency
COc1ccc(S(=O)(=O)N2CCOCC2)cc1NC(=O)CSc1n[nH]c(=O)n1C1CC1,inconclusive: -19.4%,
O=C(CCSCc1ccccc1)Nc1ccc2c(c1)OCCO2,inconclusive: 11.1%,
COc1ccc(C(=O)O)cc1S(=O)(=O)N1CCN(c2ccccn2)CC1,inactive: 1.4%,

# Following part

SMILES,"activity change, negative = inhibition",Potency
O=c1c2ccccc2nc(/C=C/c2ccc3c(c2)OCO3)n1CCCO,inactive: -1.11%,
O=C(NNc1ccccc1Br)C(=O)n1ccc2ccccc21,,"inconclusive: 23.1 µM [falling, partial curve]"
Cc1cccc(C)c1NC(=O)CNC(=O)c1cn(-c2ccccc2)nc1-c1ccccc1,inconclusive: 7.29%,
O=C(CCCn1c(=S)[nH]c2ccccc2c1=O)N1CCCCC1,inconclusive: -13.6%,
CC(=O)c1cccc(NS(=O)(=O)c2cc3c(cc2C)N(C(C)=O)CCO3)c1,,"inconclusive: 6.31 µM [falling, partial curve, poor fit]"
Cc1nnc(C)n1/N=C/c1cc2ccccc2nc1Cl,,"inconclusive: 15.8 µM [falling, single point]"
CC(C)c1ccc(/C=C/C(=O)NC(=S)Nc2ccc(CN3CCOCC3)cc2)cc1,inconclusive: 8.75%,
Cc1ccc(-n2c(=S)[nH]c3nc4c(cc3c2=O)COC(C)(C)C4)cc1,inactive: -1.37%,
COc1ccc(Br)c(C(=O)OCC(=O)N2CCC(Cc3ccccc3)CC2)c1,,"inconclusive: 29.1 µM [falling, partial curve, poor fit]"
COCC(=O)N/N=C\c1ccc(OC/C=C/c2ccccc2)c(OC)c1,inconclusive: 1.31%,
CC(C)(C)[C@H]1CCC(=O)N([C@H](CSc2ccccc2)Cc2ccccc2)CC1,inactive: 12.3%,
O=C(NCC1CC1)C1CCCN(S(=O)(=O)c2ccc(-n3cnnn3)cc2)C1 (stereo not drawn),inconclusive: 0.196%,
CCc1ccc(CCC(=O)Nc2sc(C)c(C)c2C(=O)OC)o1,inconclusive: -13.9%,
COC(=O)C1(Cc2cc(-c3ccccc3)no2)CCN(C(=O)OC(C)(C)C)CC1,inconclusive: -9.94%,
COc1ccc(C2NC(=O)NC(C)=C2[N+](=O)[O-])cc1OC (stereo not drawn),inconclusive: -12.3%,
CCOC(=O)C1(CC2CCCCO2)CCN(Cc2cc(F)ccc2-n2cccn2)CC1 (stereo not drawn),,"inconclusive: 35.5 µM [falling, single point]"
COc1cccc(CC(=O)Nc2ccc(-c3csc(C)n3)cc2)c1,inconclusive: -29.5%,
COC(=O)CCCC1=CC2=C(c3ccccc3)C(=O)C(C)(OC(=O)C3CCCC3)C(=O)C2=CN1C1CCCCC1 (stereo not drawn),inconclusive: 10.6%,
CCCN1C(=O)c2ccccc2NC1c1ccc(Cl)c(Cl)c1 (stereo not drawn),inconclusive: -17.5%,
CCCCc1c(O)nc2n(c1=O)CCS2,inconclusive: 3.9%,
